Measured data: PubChem BioAssay AID1259254 (NCATS, 2017)
Screen: 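Genome-wide screen for genes that prevent DNA re-replication in cancer cells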 (primary screen). Cells: human HCT116 colorectal cancer cells. Reagent: single siRNA against human genes. Timing: 3 days. Read-out: 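Nuclei stained with Hoechst and imaged; cell-cycle phase assigned by DNA content; G2 share scaled per plate, non-targeting siRNA 0%, GMNN siRNA 100%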. Scale: G2 robust z-score and G2 cells, % of GMNN control: higher = more G2 cells, more excess DNA replication; raw share of cells in G2: higher = larger share of cells with G2 DNA content. Call rule: 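An siRNA counts as active if its G2 robust z-score lies at least 5 MADs above the screen median; here such calls match roughly 38% of GMNN control or more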.
Here is one part, drawn at random, of about 59,000 reagents. Of all reagents, about 1,550 (2.6%) were called active. 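G2 share is only a proxy for re-replication; each gene was hit by three separate siRNAs, and active genes were retested.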 Raw values are not corrected between plates. A number with no mark means an inactive call. Reagents against one gene are numbered here. The record does not give: the amount of reagent.

target gene	reagent no.	G2 robust z-score	G2 cells, % of GMNN control	raw share of cells in G2 (%)
CRYZ (crystallin zeta)	1	2.88	23.2	12.1
CRYZ (crystallin zeta)	2	-0.84	-2.94	3.92
CRYZ (crystallin zeta)	3	-0.446	-0.167	4.9
PDCD6IP (programmed cell death 6 interacting protein)	1	0.312	5.16	4.96
PDCD6IP (programmed cell death 6 interacting protein)	2	0.205	4.41	6.87
PDCD6IP (programmed cell death 6 interacting protein)	3	-0.62	-1.4	4.18
CTR9 (CTR9 component of Paf1/RNA polymerase II complex)	1	-0.557	-0.95	4.9
CTR9 (CTR9 component of Paf1/RNA polymerase II complex)	2	-0.441	-0.134	3.89
CTR9 (CTR9 component of Paf1/RNA polymerase II complex)	3	-0.877	-3.21	2.24
UAP1 (UDP-N-acetylglucosamine pyrophosphorylase 1)	1	0.868	9.07	8.73
UAP1 (UDP-N-acetylglucosamine pyrophosphorylase 1)	2	-0.931	-3.58	3.32
UAP1 (UDP-N-acetylglucosamine pyrophosphorylase 1)	3	-0.528	-0.745	3.71
PINLYP (phospholipase A2 inhibitor and LY6/PLAUR domain containing)	1	-0.028	2.77	5.94
PINLYP (phospholipase A2 inhibitor and LY6/PLAUR domain containing)	2	-0.84	-2.95	2.74
PINLYP (phospholipase A2 inhibitor and LY6/PLAUR domain containing)	3	-0.0098	2.9	4.67
C22orf23 (chromosome 22 open reading frame 23)	1	-0.398	0.167	4.16
C22orf23 (chromosome 22 open reading frame 23)	2	-0.787	-2.57	2.7
C22orf23 (chromosome 22 open reading frame 23)	3	1.3	12.1	6.08
CYP19A1 (cytochrome P450 family 19 subfamily A member 1)	1	1.31	12.2	9.32
CYP19A1 (cytochrome P450 family 19 subfamily A member 1)	2	-1.13	-4.97	3.18
CYP19A1 (cytochrome P450 family 19 subfamily A member 1)	3	1.67	14.7	9.17
SPRED3 (sprouty related EVH1 domain containing 3)	1	-0.872	-3.17	3.48
SPRED3 (sprouty related EVH1 domain containing 3)	2	-0.62	-1.4	3.3
SPRED3 (sprouty related EVH1 domain containing 3)	3	0.226	4.56	5.33
ITGA7 (integrin subunit alpha 7)	1	-0.502	-0.566	4.84
ITGA7 (integrin subunit alpha 7)	2	-1.09	-4.73	3.88
ITGA7 (integrin subunit alpha 7)	3	4.05	31.5	15.7
RPS11P5 (ribosomal protein S11 pseudogene 5)	1	1.75	15.3	9.34
RPS11P5 (ribosomal protein S11 pseudogene 5)	2	2.29	19	9.59
RPS11P5 (ribosomal protein S11 pseudogene 5)	3	-0.368	0.375	3.74
CYB5R5 (cytochrome b5 reductase 5 (putative))	1	-0.111	2.19	3.86
CYB5R5 (cytochrome b5 reductase 5 (putative))	2	-0.937	-3.63	2.22
CYB5R5 (cytochrome b5 reductase 5 (putative))	3	3.65	28.6	14.3
PLPBP (pyridoxal phosphate binding protein)	1	-0.275	1.03	3.87
PLPBP (pyridoxal phosphate binding protein)	2	-1.08	-4.61	3.93
PLPBP (pyridoxal phosphate binding protein)	3	1.28	12	8.35
SPARCL1 (SPARC like 1)	1	-0.348	0.517	5.36
SPARCL1 (SPARC like 1)	2	-0.606	-1.3	3.38
SPARCL1 (SPARC like 1)	3	0.229	4.58	4.97
EN1 (engrailed homeobox 1)	1	1.02	10.2	8.93
EN1 (engrailed homeobox 1)	2	-0.539	-0.823	4.95
EN1 (engrailed homeobox 1)	3	1.21	11.5	7.75
RPAP1 (RNA polymerase II associated protein 1)	1	0.145	3.99	5.91
RPAP1 (RNA polymerase II associated protein 1)	2	0.196	4.34	5.82
RPAP1 (RNA polymerase II associated protein 1)	3	-0.933	-3.6	2.04
LINC00290 (long independently transcribed non-coding RNA 290)	1	-0.991	-4.01	2.08
LINC00290 (long independently transcribed non-coding RNA 290)	2	-1.31	-6.26	1.16
LINC00290 (long independently transcribed non-coding RNA 290)	3	-0.26	1.14	3.27
ANKRD53 (ankyrin repeat domain 53)	1	-0.801	-2.66	1.65
ANKRD53 (ankyrin repeat domain 53)	2	3.67	28.8	16.4
ANKRD53 (ankyrin repeat domain 53)	3	1.71	15	10.9
C2CD2L (C2CD2 like)	1	0.769	8.38	9.12
C2CD2L (C2CD2 like)	2	-0.71	-2.03	3.1
C2CD2L (C2CD2 like)	3	-0.571	-1.05	3.02
BECN1 (beclin 1)	1	0.855	8.98	9.11
BECN1 (beclin 1)	2	1.33	12.3	8.78
BECN1 (beclin 1)	3	1.53	13.8	8.21
LRRTM2 (leucine rich repeat transmembrane neuronal 2)	1	-0.501	-0.554	5.91
LRRTM2 (leucine rich repeat transmembrane neuronal 2)	2	-1.1	-4.76	2.61
LRRTM2 (leucine rich repeat transmembrane neuronal 2)	3	-1.12	-4.94	2.37
SLC5A12	1	-0.107	2.22	5.63
SLC5A12	2	-0.971	-3.86	3.29
SLC5A12	3	0.86	9.02	10.3
CNTN4 (contactin 4)	1	-0.448	-0.182	4.62
CNTN4 (contactin 4)	2	-0.644	-1.56	4.13
CNTN4 (contactin 4)	3	0.0364	3.22	7.49
DENND4A (DENN domain containing 4A)	1	-0.505	-0.583	5.07
DENND4A (DENN domain containing 4A)	2	2.2	18.5	11.7
DENND4A (DENN domain containing 4A)	3	0.121	3.82	4.8
ZDHHC13 (zDHHC palmitoyltransferase 13)	1	-1.07	-4.53	3.9
ZDHHC13 (zDHHC palmitoyltransferase 13)	2	-0.684	-1.85	3.56
ZDHHC13 (zDHHC palmitoyltransferase 13)	3	-0.154	1.89	4.52
CPA6 (carboxypeptidase A6)	1	4.17	32.3	16.8
CPA6 (carboxypeptidase A6)	2	0.288	4.99	6.67
CPA6 (carboxypeptidase A6)	3	0.433	6.02	6.15
BCL2A1 (BCL2 related protein A1)	1	-0.512	-0.637	4.5
BCL2A1 (BCL2 related protein A1)	2	-0.146	1.94	4.71
BCL2A1 (BCL2 related protein A1)	3	2.01	17.1	11.2
CCT8L2 (chaperonin containing TCP1 subunit 8 like 2)	1	1.49	13.4	7.72
CCT8L2 (chaperonin containing TCP1 subunit 8 like 2)	2	-0.439	-0.118	3.12
CCT8L2 (chaperonin containing TCP1 subunit 8 like 2)	3	0.971	9.8	6.96
NSUN4 (NOP2/Sun RNA methyltransferase 4)	1	-0.479	-0.401	5.73
NSUN4 (NOP2/Sun RNA methyltransferase 4)	2	-0.635	-1.5	4.37
NSUN4 (NOP2/Sun RNA methyltransferase 4)	3	0.956	9.69	7.82
LINC00944 (long independently transcribed non-coding RNA 944)	1	-0.0149	2.86	4.75
LINC00944 (long independently transcribed non-coding RNA 944)	2	0.0741	3.49	4.92
LINC00944 (long independently transcribed non-coding RNA 944)	3	1.07	10.5	9.12

Only “G2 robust z-score” (6 entries from above):
SPARCL1 (SPARC like 1) #1 = -0.348
SPARCL1 (SPARC like 1) #2 = -0.606
SPARCL1 (SPARC like 1) #3 = 0.229
EN1 (engrailed homeobox 1) #1 = 1.02
EN1 (engrailed homeobox 1) #2 = -0.539
EN1 (engrailed homeobox 1) #3 = 1.21
